For at least one compound, name, drawing or mass did not settle the structure.
Assays:
Format in all cases: in vivo, Male Wistar rats
Details in all cases: TMG preparation administration group vs control group
TNB-induced colitis = assay: Effect of repressing lesion in TNB-induced colitis (body weight increase, damage score, wet weight of intestine)
Description: (§1) The trinitrobenzenesulfonic acid (TNB)-induced colitis is said to resemble the inflammatory bowel disease of man, particularly Crohn's disease. In this model, the myeloperoxidase (MPO) activity, i.e. an index of the humectation of neutrophil into the tissue, prominently increases in the intestinal mucous membrane from the initial stage of the TNB administration onward and thereafter induces full-thickness inflammations inclusive of edama, erosion, and necrosis of the intestinal duct. In this lesion of the mucous membrane, the thiobarbituraic acid (TAB) reaction substance, i.e. an index of the peroxide of lipid, also increases and the antioxidizing substances such as the SOD activity, the glutathionperoxidase (GPx) activity, and α-tocopherol conversely decrease. By the use of this model, the chromanol glucoside was tested for the effect thereof manifested in repressing the lesion of the TNB-induced colitis.
As the chromanol glucoside, the 2-(α-D-glucopyranosyl) methyl-2,5,7,8-tetramethylchroman-6-ol (TMG) represented by the following formula (3) produced by the method described in Example 1 of JP-A-07-118,287 was thoroughly dissolved in water in varying concentrations of 20 mg/ml, 2 mg/ml, and 0.2 mg/ml to obtain injection grade preparations. [drawing 5]
Male Wistar rats 7 weeks old weighing 190-210 g were divided into groups of six heads. To the rats, after 48 hours' fasting, the TBN dissolved in 50% ethanol in a ratio of 120 mg/ml was intestinally administered at a dose of 1 ml/kg. Thereafter, the TMG preparations obtained as described above were administered to the rats intraabdominally at a dose of […] per head daily. After one week of the administration, the rats were rated for increase of body weight, damage score of the intestine in a 8 cm region on the side of the anus, wet weight, TBA reactive substance, and MPO activity.
Of the items of rating mentioned above, the damage score, the TBA reactive substance, and the MPO activity were measured by the following methods. […]

[1] = tested on: TBA reactive substance (index of the peroxide of lipid), TNB-induced colitis; assay: TBA reactive substance in intestinal mucous membrane of TNB-induced colitis
Description: as §1, with “By the use of this model, the chromanol glucoside was tested for the effect thereof manifested in repressing the lesion of the TNB-induced colitis.” left out
(§2) Of the items of rating mentioned above, the damage score, the TBA reactive substance, and the MPO activity were measured by the following methods.
The determination was performed in accordance with the method proposed by Ohkawa et al. (H. Ohkawa, et al.: Anal. Biochem., 95 (1979) 351-358). […] The supernatant resulting from the centrifugation was measured for absorbance at a wavelength of 535 nm with a spectrophotometer. […] Based on this calibration curve, the TBA reactive substance of a sample was determined.

[2] = tested on: myeloperoxidase (MPO), TNB-induced colitis; assay: MPO activity in intestinal mucous membrane of TNB-induced colitis
Description: The trinitrobenzenesulfonic acid (TNB)-induced colitis is said to resemble the inflammatory bowel disease of man, particularly Crohn's disease. In this model, the myeloperoxidase (MPO) activity, i.e. an index of the humectation of neutrophil into the tissue, prominently increases in the intestinal mucous membrane from the initial stage of the TNB administration onward and thereafter induces full-thickness inflammations inclusive of edama, erosion, and necrosis of the intestinal duct. […]
as §2
The determination was carried out in accordance with the o-dianisidine-hydrogen peroxide reaction (J. E. Krrawisz, et al.,: Gastroenterology, 87 (1984) 1344-135). […] In 950 μl of a reaction solution prepared by dissolving 16.7 mg of o-dianidine dihydrochloride in 50 mM of potassium phosphate having a pH of 6.0 and further mixing the resulting solution with 100 μl of an aqueous 0.5% hydrogen peroxide solution, 50 μl of the sample was placed and measured for change in absorbance at a wavelength of 460 nm with a spectrophotometer. […]

Cc1c(C)c2c(c(C)c1O)CCC(C)(CO[C@H]1O[C@H](CO)[C@@H](O)[C@H](O)[C@H]1O)O2 (some centres unmarked) [TMG]
increase of damage score (in words) (TNB-induced colitis): significantly repressed | increase of wet weight (in words) (TNB-induced colitis): significantly repressed | repression of increase in body weight in TNB-induced colitis (in words) (TNB-induced colitis): alleviated | increase of TBA reactive substance (in words) [1]: significantly repressed | increase of MPO activity (in words) [2]: significantly repressed
